Series [1] is described as follows: general procedure: Fmoc solid-phase peptide synthesis; Rink amide MBHA resin (0.54 mmol/g); HBTU/HOBt/DIEA or PyBOP/HOBt/DIEA; DIC/HOBt for the last residue. As to conditions: whole synthesis.
Series [2] is described as follows: general procedure: Fmoc solid-phase peptide synthesis; Rink amide resin; HBTU/HOBt/DIEA or PyBOP/HOBt/DIEA; DIC/HOBt for the last residue. The conditions noted are these: whole synthesis, scale 0.2 mmol.
Where [3] appears, read: scale of the general procedure 0.1-0.2 mmol.

Positions of bridges follow the written chain, without caps; N, C: chain ends. Non-standard residues stand in square brackets, D forms with d. No end group written: not given here.

Data on four substances can be found in patent US7968080B2 (The Regents of the University of California, priority 2003, dated 2011).

Consider “(4-amino)-D-Phe-c[Cys-Tyr-D-Trp-Lys-Val-Cys]-Asp-NH2”, for which the crude mass in series [1] (scale 0.1 mmol) stood at 115 mg. In series [1] (scale 0.2 mmol), “(4-amino)-D-Phe-c[Cys-Tyr-D-Trp-Lys-Val-Cys]-D-Asp-NH2” showed a crude mass of 237.7 mg. In turn, [dF]CY[dW]KVCD-NH2 (disulfide 2-7) returned a crude mass in series [2] of 228 mg. As to “(4-amino-3-iodo)-D-Phe-c[Cys-Tyr-D-Trp-Lys-Val-Cys]-Asp-NH2”, the isolated mass in series [1] is on record as 4.1 mg. This substance had a crude mass in series [1] (scale 90 mg peptide resin) of 41 mg. In series [1] (setting [3]), this substance came in with a crude yield of 64% and an isolated yield of 7.4%.
